{"source": "patent US8906349B2", "about": "“Oral care composition” (priority 2009, dated 2014)", "tested_on": "A. viscosus", "experiment": "Minimum inhibitory concentration, serial dilution in 96-well plate, 24 h", "type": "cell-based", "settings": "Actinomyces viscosus, read-out: MIC (A. viscosus)", "procedure": "The minimum inhibitory concentration for actives was determined by incubating Actinomyces viscosus bacteria with serial dilutions of the active for 24 hours and determining the lowest concentration at which growth of this species was inhibited. Briefly, 100 μl final volume actives were serially diluted in 0.5× tryptic soy broth (TSB) across duplicate wells of a 96-well flat bottom microtiter plate. An overnight culture of bacteria was diluted to an OD610 ˜0.2 and 100 μl of this was added to each well. Plates were incubated overnight at 37° C. OD610 was read for each well and the MIC was determined as the concentration of active in the last well where bacterial growth was inhibited."}
{"smiles": "CCCCCCCCCCCCCCCC[n+]1ccccc1", "note": "[CPC, cetyl pyridinium chloride]", "values": [{"measurement": "MIC", "result": "< 1", "unit": "µg/mL"}]}
